# The other results are listed elsewhere or left out.
# B1: HFR-3 (Triticum aestivum) (protein)
# chain: MKGLLLCALALAFAAVTTHAQLQSCPTRCGKQADGMECPNNLCCSKDGYCGLGVDYCSAGAGCQSGACYDNKICGAQANGTLCRNNHCCSSGGRCGYGREYCSNGCQGGPCWADLKCGHLDNGKLCPNNLCCSQYGYCGLGPEFCGTGCQNGACSTDKPCGNKANGAPCTNNYCCSQYGSCGLGKDYCGTGCQNGACN
# Experiments:
# Assay in all cases: glycan array binding signal (z-score within array); higher = stronger binding
# Settings in all cases: glycan notation: IUPAC condensed, linker removed
# [1] = biological target: Gal3S(b1-4)Glc6S
# Method in brief: (§1)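 Negative Z-scores can be read as non-binding. The Z-score is calculated within each array and then averaged across arrays of one protein sequence at different concentrations or buffers and across linkers. Arrays, 3228 in all, were curated from the Consortium for Functional Glycomics database and kept only where the protein sequence was available.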
# [2] = biological target: Gal3S(b1-4)GlcNAc
# Method in brief: as §1
# [3] = biological target: Gal3S(b1-4)[Fuc(a1-3)]Glc6S
# Method in brief: as §1
# [4] = biological target: Gal3S(b1-4)[Fuc(a1-3)]GlcNAc
# Method in brief: as §1
# [5] = biological target: Gal3S(b1-4)[Fuc(a1-3)]GlcNAc6S
# Method in brief: as §1
# [6] = biological target: Gal3S4S(b1-4)GlcNAc
# Method in brief: as §1
# [7] = biological target: Gal3S6S(b1-4)GlcNAc
# Method in brief: as §1
# [8] = biological target: Gal3S6S(b1-4)GlcNAc6S
# Method in brief: as §1
# [9] = biological target: Gal4S(b1-4)GlcNAc
# Method in brief: as §1
# [10] = biological target: Gal4S6S(b1-4)GlcNAc
# Method in brief: as §1
# [11] = biological target: Gal6P(b1-4)GlcNAc
# Method in brief: as §1
# [12] = biological target: Gal6S(b1-3)GlcNAc
# Method in brief: as §1
# [13] = biological target: Gal6S(b1-3)GlcNAc6S
# Method in brief: as §1
# [14] = biological target: Gal6S(b1-4)Glc
# Method in brief: as §1
# [15] = biological target: Gal6S(b1-4)Glc6S
# Method in brief: as §1
# [16] = biological target: Gal6S(b1-4)GlcNAc
# Method in brief: as §1
# [17] = biological target: Gal6S(b1-4)GlcNAc6S
# Method in brief: as §1
# [18] = biological target: GalNAc(a1-3)Gal
# Method in brief: as §1
# [19] = biological target: GalNAc(a1-3)GalNAc
# Method in brief: as §1
# [20] = biological target: GalNAc(a1-3)GalNAc(a1-3)Gal(a1-4)Gal(b1-4)GlcNAc
# Method in brief: as §1
# [21] = biological target: GalNAc(a1-3)GalNAc(b1-3)Gal(a1-4)Gal(b1-4)Glc
# Method in brief: as §1
# [22] = biological target: GalNAc(b1-3)Gal
# Method in brief: as §1
# [23] = biological target: GalNAc(b1-3)Gal(a1-4)Gal(b1-4)GlcNAc
# Method in brief: as §1
# [24] = biological target: GalNAc(b1-3)Gal(a1-4)Gal(b1-4)GlcNAc(b1-3)Gal(b1-4)Glc
# Method in brief: as §1
# [25] = biological target: GalNAc(b1-3)Gal(a1-6)Gal(b1-4)Glc
# Method in brief: as §1
# [26] = biological target: GalNAc(b1-3)GalNAc
# Method in brief: as §1
# [27] = biological target: GalNAc(b1-3)GlcNAc
# Method in brief: as §1
# [28] = biological target: GalNAc(b1-4)Gal(b1-4)Glc
# Method in brief: as §1
# [29] = biological target: GalNAc(b1-4)GlcNAc
# Method in brief: as §1
# [30] = biological target: GalNAc(b1-4)GlcNAc(b1-2)Man
# Method in brief: as §1
# [31] = biological target: GalNAc(b1-4)GlcNAc(b1-2)Man(a1-3)[GalNAc(b1-4)GlcNAc(b1-2)Man(a1-6)]Man(b1-4)GlcNAc(b1-4)GlcNAc
# Method in brief: as §1
# [32] = biological target: GalNAc(b1-4)GlcNAc(b1-3)GalNAc(b1-4)GlcNAc
# Method in brief: as §1
# [33] = biological target: GalNAc(b1-4)GlcNAc6S
# Method in brief: as §1
# [34] = biological target: GalNAc(b1-6)GalNAc
# Method in brief: as §1
# [35] = biological target: GalNAc3S(b1-4)GlcNAc
# Method in brief: as §1
# [36] = biological target: GalNAc3S(b1-4)GlcNAc3S
# Method in brief: as §1
# [37] = biological target: GalNAc3S(b1-4)[Fuc(a1-3)]GlcNAc
# Method in brief: as §1
# [38] = biological target: GalNAc4S6S(b1-4)GlcNAc
# Method in brief: as §1
# [39] = biological target: GalNAc6S(b1-4)GlcNAc
# Method in brief: as §1
# [40] = biological target: Glc(a1-4)Glc
# Method in brief: as §1
# [41] = biological target: Glc(a1-4)Glc(a1-4)Glc(a1-4)Glc
# Method in brief: as §1
# [42] = biological target: Glc(a1-6)Glc(a1-6)Glc
# Method in brief: as §1
# [43] = biological target: Glc(a1-6)Glc(a1-6)Glc(a1-6)Glc
# Method in brief: as §1
# [44] = biological target: Glc(b1-4)Glc
# Method in brief: as §1
# [45] = biological target: Glc(b1-6)Glc
# Method in brief: as §1
binder,measurement,setting,value
B1,glycan array binding signal (z-score),[1],0.048
same,glycan array binding signal (z-score),[2],0.055
same,glycan array binding signal (z-score),[3],6.1
same,glycan array binding signal (z-score),[4],0.308
same,glycan array binding signal (z-score),[5],-0.119
same,glycan array binding signal (z-score),[6],-0.753
same,glycan array binding signal (z-score),[7],0.074
same,glycan array binding signal (z-score),[8],0.39
same,glycan array binding signal (z-score),[9],2.08
same,glycan array binding signal (z-score),[10],0.828
same,glycan array binding signal (z-score),[11],-0.382
same,glycan array binding signal (z-score),[12],-0.088
same,glycan array binding signal (z-score),[13],-1.29
same,glycan array binding signal (z-score),[14],1.54
same,glycan array binding signal (z-score),[15],0.444
same,glycan array binding signal (z-score),[16],-0.491
same,glycan array binding signal (z-score),[17],0.722
same,glycan array binding signal (z-score),[18],-0.819
same,glycan array binding signal (z-score),[19],-0.8
same,glycan array binding signal (z-score),[20],-0.597
same,glycan array binding signal (z-score),[21],-1.65
same,glycan array binding signal (z-score),[22],1.25
same,glycan array binding signal (z-score),[23],1.23
same,glycan array binding signal (z-score),[24],-0.821
same,glycan array binding signal (z-score),[25],-0.624
same,glycan array binding signal (z-score),[26],-1.39
same,glycan array binding signal (z-score),[27],-1.55
same,glycan array binding signal (z-score),[28],1.93
same,glycan array binding signal (z-score),[29],2.48
same,glycan array binding signal (z-score),[30],-0.89
same,glycan array binding signal (z-score),[31],0.738
same,glycan array binding signal (z-score),[32],-1.32
same,glycan array binding signal (z-score),[33],0.42
same,glycan array binding signal (z-score),[34],-0.596
same,glycan array binding signal (z-score),[35],0.144
same,glycan array binding signal (z-score),[36],-0.084
same,glycan array binding signal (z-score),[37],-0.973
same,glycan array binding signal (z-score),[38],-0.038
same,glycan array binding signal (z-score),[39],-1.27
same,glycan array binding signal (z-score),[40],0.957
same,glycan array binding signal (z-score),[41],0.825
same,glycan array binding signal (z-score),[42],0.923
same,glycan array binding signal (z-score),[43],-0.131
same,glycan array binding signal (z-score),[44],0.435
same,glycan array binding signal (z-score),[45],-0.1

# Two successive records out of the list so far, quoted:
binder,measurement,setting,value
B1,glycan array binding signal (z-score),[44],0.435
same,glycan array binding signal (z-score),[45],-0.1

# — the supplement of paper PMC8728848
